# Laboratory results published in PubChem BioAssay AID493014 (National Center for Advancing Translational Sciences (NCATS), 2011).
# The list shows a part of the results. These are further read-outs of the screen, such as a control signal, another cell line or another target. No call is given for them. Compounds called inactive in the main read-out are mostly missing here. Words in brackets tell the shape of the fitted curve; partial curves, single points and poor fits give uncertain potencies.
# Assay: qHTS Assay to Find Inhibitors of Chronic Active B-Cell Receptor Signaling
# Conditions: ABC-DLBCL IkBa-CBG/CBR reporter, luminescence ratio (green luciferase fused to IkBa over red control in TMD8 lymphoma cells), 4 h
# Summary of the method: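 Compounds up to 46 uM were incubated four hours with TMD8 cells whose green CBG68 luciferase is fused to IkappaBalpha; red CBR luminescence normalised the signal, and concentration-effect curves were fitted to fusion, red and ratio data.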
# [1] = measured here: CBR red luminescence, cell number
# [2] = measured here: IkBa-CBG green luminescence
structure (smiles),measurement,setting,value
N/C(=N/OCC(=O)Nc1cccc2ccccc12)c1nonc1N,AC50,[1],"1.12 µM [falling, full curve]"
COc1ccc(O)c(/C=N\NC(=O)CCn2nnc3ccccc32)c1,AC50,[1],"16.4 µM [falling, single point]"
CCOc1ccc(C2C(C(=O)Nc3ccccc3)=C(C)N=c3s/c(=C/c4cccc(OCC(=O)O)c4)c(=O)n32)cc1 (centres undefined),AC50,[1],"15.8 µM [falling, single point]"
Cn1c(=O)c2c(nc(SCC(=O)N3CCc4ccccc4C3)n2C)n(C)c1=O,AC50,[1],"1.26 µM [falling, full curve]"
CC1=Nc2ccccc2/C1=C\c1nc(-c2ccc(F)cc2)oc1O,AC50,[1],"18.4 µM [rising, partial curve, poor fit]"
COC(=O)C1=C(C)NC2=C(C(=O)CCC2)C1c1cccs1 (centres undefined),AC50,[1],"32.6 µM [falling, single point]"
COC(=O)Cc1csc(NC(=O)c2ccc3ncsc3c2)n1,AC50,[1],"8.2 µM [falling, partial curve]"
Cc1csc(NC(=O)C(C)Oc2ccc(Cl)cc2C)n1 (centres undefined),AC50,[1],"32.6 µM [falling, single point]"
O=C(Nc1nc(-c2ccccn2)cs1)c1ncc(Cl)c(Cl)c1Cl,AC50,[1],"17.8 µM [falling, single point]"
Cc1cc(NC(=O)c2cc(C)on2)n(-c2ccccc2)n1,AC50,[1],"0.0164 µM [rising, full curve, poor fit]"
CC(=O)Nc1ccc(SCC(=O)c2cc(C)n(-c3ccccc3F)c2C)cc1,AC50,[1],"32.6 µM [falling, single point]"
CCCc1[nH]nc2c1C(c1ccoc1)C(C#N)=C(N)O2 (centres undefined),AC50,[2],"29.1 µM [falling, single point]"
C/C(=N\NC(=O)c1nnn(-c2nonc2N)c1-c1ccc(Cl)c(Cl)c1)c1ccncc1,AC50,[1],"25.1 µM [falling, single point]"
same,AC50,[2],"35.5 µM [rising, partial curve, poor fit]"
CCn1c(SCC(=O)Nc2sc(C)c(C)c2C#N)nnc1C(C)C,AC50,[1],"29.1 µM [falling, single point]"
CCCCCn1c(SC(C)C(C)=O)nc2c1c(=O)[nH]c(=O)n2C (centres undefined),AC50,[1],"29.1 µM [rising, single point]"
CCOC(=O)c1c(NC(=O)CSc2cccc[n+]2[O-])sc(C(=O)Nc2ccccc2)c1C,AC50,[2],"35.5 µM [falling, partial curve, poor fit]"
COc1ccc(-c2nsc(SCC(=O)NCC3CCCO3)n2)cc1 (centres undefined),AC50,[1],"6.31 µM [rising, full curve, poor fit]"
C[C@H](CO)N1C[C@H](C)[C@@H](CN(C)Cc2ccc(Oc3ccccc3)cc2)Oc2c(NC(=O)C3CC3)cccc2C1=O,AC50,[1],"25.9 µM [falling, partial curve, poor fit]"
CCCC12CN3CCN(CC(C3)/C1=N\NC(=O)c1ccc(F)cc1)C2,AC50,[1],"7.08 µM [falling, partial curve]"
CCOC(=O)c1cc2c(C)n(-c3ccc(C)cc3)c(C)c2ccc1=O,AC50,[1],"10 µM [falling, partial curve, poor fit]"
NC(=O)c1ccc[n+]([C@H]2O[C@@H](COP(=O)([O-])OP(=O)(O)OC[C@H]3O[C@@H](n4cnc5c(N)ncnc54)[C@H](O)[C@@H]3O)[C@H](O)[C@@H]2O)c1,AC50,[1],"2.59 µM [rising, full curve, poor fit]"
same,AC50,[2],"16.4 µM [falling, partial curve]"
CCOc1ccc(/C=N\NC(=O)c2c(C)nc3cc(C)ccn23)cc1,AC50,[1],"35.5 µM [rising, single point]"
CCOC(=O)CSc1nnc(CNC(=O)c2cccs2)n1CCc1ccccc1,AC50,[1],"8.91 µM [falling, partial curve, poor fit]"
O=C(O)c1cc(-c2ccc(/C=C3\NC(=O)N(c4ccccc4)C3=O)o2)ccc1Cl,AC50,[1],"5.62 µM [rising, single point]"
CSCCC(NS(=O)(=O)c1ccc2c(c1)oc(=O)n2C)C(=O)Nc1ccc(F)c(Cl)c1 (centres undefined),AC50,[1],"0.631 µM [falling, partial curve, poor fit]"
CC1CCC2(CC1)C(Nc1cccc(Cl)c1)=NC(=S)N2CC#N (centres undefined),AC50,[1],"29.1 µM [falling, single point]"
COc1ccccc1C(=O)Nc1nnc(S(=O)(=O)N2CCOCC2)s1,AC50,[1],"2.51 µM [rising, partial curve, poor fit]"
O=C(CSCc1ccccc1Cl)Nc1ccc(C(=O)O)cc1,AC50,[1],"3.55 µM [falling, full curve]"
O=C(CN1C(=O)S/C(=C/c2cc(Br)cs2)C1=O)N1CCOCC1,AC50,[1],"0.231 µM [falling, full curve]"
CCc1cc2c3c(c1)C1(C(=O)N3C(C)(C)CC2C)C(C#N)=C(N)N2C(=C1C#N)Nc1ccccc12 (centres undefined),AC50,[1],"29.1 µM [falling, single point]"
O=C(N/N=C\c1ccccn1)c1ccccc1O,AC50,[1],"10 µM [falling, partial curve]"
same,AC50,[2],"35.5 µM [falling, single point]"
Cc1ccc(S(=O)(=O)N(C)C)cc1NC(=O)C(C)OC(=O)c1cc[n+]([O-])cc1 (centres undefined),AC50,[1],"1.16 µM [rising, full curve, poor fit]"
CC(=O)NC(=S)Nc1ccccc1F,AC50,[1],"8.91 µM [falling, partial curve, poor fit]"
CCOc1cccc(/C=N/NC(=O)c2ccc3c(c2)OCCO3)c1O,AC50,[1],"7.08 µM [falling, partial curve]"
O=C(Oc1c(Cl)cc(Cl)c2cccnc12)c1cccc([N+](=O)[O-])c1,AC50,[2],"8.2 µM [falling, partial curve, poor fit]"
Cc1cc(C)nc(SCCC(=O)N(C)C)n1,AC50,[1],"29.1 µM [rising, single point]"
Cc1cccc(OCc2nc(-c3ccc(-n4cccc4)cc3)no2)c1,AC50,[1],"8.2 µM [rising, partial curve, poor fit]"
CCn1nc(C)c(CNC(=O)C2CCC(=O)N(CCc3ccc(OC)cc3)C2)c1C (centres undefined),AC50,[1],"5.62 µM [falling, single point]"
CCCOc1ccc(C(C(=O)OCCN(CC)CC)c2ccccc2)cc1 (centres undefined),AC50,[1],"29.1 µM [falling, single point]"
N=C1C(c2nc(-c3ccc(Cl)cc3)cs2)=C(O)CN1CCCN1CCOCC1,AC50,[1],"8.2 µM [rising, partial curve, poor fit]"
CC(C)=CCC/C(C)=C/CNC(=O)C[C@H]1C[C@H](C(=O)N2CCCCC2)[C@@]2(CCc3ccccc3)c3[nH]c4cc(CCC(=O)N(C)C)ccc4c3CCN2C1=O,AC50,[1],"23.1 µM [rising, partial curve]"
O=C(Nc1ccc(Br)cc1)C1CC=CCC1C(=O)OCC1CCCO1 (centres undefined),AC50,[1],"1.84 µM [rising, partial curve, poor fit]"
O=C(CCN1C(=O)/C(=C/c2cccs2)SC1=S)Nc1ccccc1O,AC50,[1],"3.98 µM [falling, partial curve, poor fit]"
Fc1cc(F)c2nc(Nc3nc4cc5c(cc4s3)OCO5)sc2c1,AC50,[1],"0.13 µM [rising, full curve]"
Cc1cccc(C(=O)NNC(=O)/C=C/C(=O)O)c1,AC50,[1],"10 µM [falling, partial curve, poor fit]"
Cc1ccc(SCCC(=O)N2CCOCC2)cc1,AC50,[1],"8.2 µM [falling, partial curve]"
COc1ccc(NC(=O)C2CCCN2c2ccc(OC)c(OC)c2)cc1OC (centres undefined),AC50,[1],"14.1 µM [rising, partial curve]"
Cc1cc(/C=C2\SC(=O)NC2=O)c(C)n1-c1ccc(N2CCOCC2)cc1,AC50,[1],"35.5 µM [rising, single point]"
O=[N+]([O-])c1ccc(C2CC(c3ccccc3)=Nc3ccccc3S2)cc1 (centres undefined),AC50,[1],"12.6 µM [rising, partial curve]"
same,AC50,[2],"25.1 µM [falling, single point]"
CC(=O)c1ccc(NC(=O)CCCN2C(=O)/C(=C/C(C)=C/c3ccccc3)SC2=S)cc1,AC50,[1],"23.1 µM [falling, single point]"
Cc1ncc(CN2CCC(C(=O)Nc3ccc(-n4cccn4)cc3)CC2)s1,AC50,[1],"0.631 µM [rising, full curve, poor fit]"
CCc1nc(SCC(=O)Nc2ccccc2)c2c(=O)n(C)c(=O)n(C)c2n1,AC50,[1],"0.794 µM [rising, full curve]"
COc1ccc(C(=O)NCc2c(C)nn(Cc3ccccc3)c2C)cc1S(=O)(=O)N1CCOCC1,AC50,[1],"3.66 µM [rising, full curve, poor fit]"
COc1ccc2c(=O)c(-c3ccccc3)coc2c1,AC50,[1],"10 µM [falling, partial curve]"
O=C(c1cccc(C(F)(F)F)c1)N1CCc2c([nH]c3ccccc23)C1C(F)(F)F (centres undefined),AC50,[1],"7.08 µM [falling, full curve, poor fit]"
S=C(NCc1ccccc1)NN1CCOCC1,AC50,[1],"12.6 µM [rising, partial curve, poor fit]"
COc1ccc(/C=N/NC(=O)CNC(=O)/C=C/c2ccco2)cc1OC,AC50,[1],"14.1 µM [rising, partial curve, poor fit]"
CCC1=C(OC(=O)N(CC)CC)N2C(=O)OC(=NCc3ccccc3)[C@]2(C)[C@H]2C1=CC[C@H]1C(=O)N(CC(=O)OC)C(=O)[C@H]12,AC50,[1],"6.31 µM [falling, single point]"
CCOC(=O)C1=C(C)N(c2ccc(C)cc2)C(=O)/C1=C\c1ccc(O)c(OC)c1,AC50,[1],"15.8 µM [falling, single point]"
CCc1ccc2oc(-c3ccc(OC)cc3)cc(=Nc3cccc(C(=O)O)c3)c2c1,AC50,[1],"35.5 µM [falling, single point]"

# Two entries from above, tab-delimited.
structure (smiles)	measurement	setting	value
CCCc1[nH]nc2c1C(c1ccoc1)C(C#N)=C(N)O2 (centres undefined)	AC50	[2]	29.1 µM [falling, single point]
NC(=O)c1ccc[n+]([C@H]2O[C@@H](COP(=O)([O-])OP(=O)(O)OC[C@H]3O[C@@H](n4cnc5c(N)ncnc54)[C@H](O)[C@@H]3O)[C@H](O)[C@@H]2O)c1	AC50	[1]	2.59 µM [rising, full curve, poor fit]
